Taken from: PubChem BioAssay AID504808 (Drosophila RNAi Screening Center, 2011)
Aim: 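Chromatin factors that keep E2F targets switched off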 (primary screen). Cell system: Drosophila S2 cells. Reagent: long dsRNA against Drosophila genes. Measurement: 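Firefly luciferase driven by E2F sites, normalised to Renilla luciferase on the same minimal promoter, measured by plate reader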. Direction: E2F firefly: higher = more E2F reporter activity; Renilla normaliser: higher = more normaliser reporter signal. Rule for the call: 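Called active if the normalised E2F reporter went up by over 50%; the cutoff is arbitrary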.
In all, the deposit lists about 21,000 reagents; below is a random part of those that have a named target and a result. Over the whole deposit, 18 (0.084%) got an active call. 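Raw counts without plate normalisation, one of two replicates; the ratio scores behind the calls were not deposited.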 A number with no mark means an inactive call. Names joined by + are all predicted targets of the reagent. Not given: the amount of reagent, the time to read-out.

no.	target	dsRNA	E2F firefly, rep 1	Renilla normaliser, rep 1
1	CG15027	DRSC19608	2.18e5	6332
2	RpS21 (Ribosomal protein S21)	DRSC00833	42770	4195
3	Fuca (alpha-L-fucosidase)	DRSC10591	56282	2946
4	CG34039	DRSC09318	1.34e5	3672
5	CG13313	DRSC09984	1.06e5	3538
6	CG31204	DRSC15106	47271	3549
7	CG16972	DRSC02550	87128	3467
8	CG30492 (retired record) + M7BP	DRSC05053	1.42e5	5607
9	CG30492 (retired record) + M7BP	DRSC05054	1.29e5	5549
10	CG30492 (retired record) + M7BP	DRSC05055	1.44e5	5334
11	CG30492 (retired record) + M7BP	DRSC06701	1.35e5	4791
12	CG30492 (retired record) + M7BP	DRSC06816	1.38e5	4934
13	5PtaseI (Inositol polyphosphate-5-phosphatase type I)	DRSC16269	75560	4019
14	sip2 (septin interacting protein 2)	DRSC03154	1.40e5	4673
15	myd (mayday)	DRSC14762	48494	2814
16	myd (mayday)	DRSC15512	1.39e5	6526
17	CG34444	DRSC06435	96240	5074
18	CG3437	DRSC10366	1.12e5	6548
19	Snmp2 (Sensory neuron membrane protein 2)	DRSC10228	97963	3549
20	Snmp2 (Sensory neuron membrane protein 2)	DRSC10843	93279	3949
21	CG30076	DRSC05494	1.36e5	4199
22	ITP (Ion transport peptide)	DRSC04222	1.09e5	4985
23	CG2617	DRSC02712	97663	3976
24	CG17068	DRSC20545	1.57e5	5608
25	dan (distal antenna)	DRSC14406	65630	3557
26	CG30394	DRSC04074	1.04e5	4038
27	CG30394	DRSC04260	1.14e5	4705
28	CG43066	DRSC06927	1.46e5	4659
29	prod (proliferation disrupter)	DRSC07667	83146	3242
30	CG7166	DRSC11809	1.43e5	7205
31	alpha-Est10 (alpha-Esterase-10)	DRSC12613	1.27e5	5808
32	CG13516	DRSC04159	1.09e5	4554
33	ctp (cut up)	DRSC18758	9055	828
34	RpL7A (Ribosomal protein L7A)	DRSC18709	49662	4838
